Reference: article PMC10719344

Protein sequences, listed by entry. Tags and fused reporters are not part of them. Lines headed by an entry give the natural chain unless they say otherwise; changes in a name come on top.
UniProt P78504: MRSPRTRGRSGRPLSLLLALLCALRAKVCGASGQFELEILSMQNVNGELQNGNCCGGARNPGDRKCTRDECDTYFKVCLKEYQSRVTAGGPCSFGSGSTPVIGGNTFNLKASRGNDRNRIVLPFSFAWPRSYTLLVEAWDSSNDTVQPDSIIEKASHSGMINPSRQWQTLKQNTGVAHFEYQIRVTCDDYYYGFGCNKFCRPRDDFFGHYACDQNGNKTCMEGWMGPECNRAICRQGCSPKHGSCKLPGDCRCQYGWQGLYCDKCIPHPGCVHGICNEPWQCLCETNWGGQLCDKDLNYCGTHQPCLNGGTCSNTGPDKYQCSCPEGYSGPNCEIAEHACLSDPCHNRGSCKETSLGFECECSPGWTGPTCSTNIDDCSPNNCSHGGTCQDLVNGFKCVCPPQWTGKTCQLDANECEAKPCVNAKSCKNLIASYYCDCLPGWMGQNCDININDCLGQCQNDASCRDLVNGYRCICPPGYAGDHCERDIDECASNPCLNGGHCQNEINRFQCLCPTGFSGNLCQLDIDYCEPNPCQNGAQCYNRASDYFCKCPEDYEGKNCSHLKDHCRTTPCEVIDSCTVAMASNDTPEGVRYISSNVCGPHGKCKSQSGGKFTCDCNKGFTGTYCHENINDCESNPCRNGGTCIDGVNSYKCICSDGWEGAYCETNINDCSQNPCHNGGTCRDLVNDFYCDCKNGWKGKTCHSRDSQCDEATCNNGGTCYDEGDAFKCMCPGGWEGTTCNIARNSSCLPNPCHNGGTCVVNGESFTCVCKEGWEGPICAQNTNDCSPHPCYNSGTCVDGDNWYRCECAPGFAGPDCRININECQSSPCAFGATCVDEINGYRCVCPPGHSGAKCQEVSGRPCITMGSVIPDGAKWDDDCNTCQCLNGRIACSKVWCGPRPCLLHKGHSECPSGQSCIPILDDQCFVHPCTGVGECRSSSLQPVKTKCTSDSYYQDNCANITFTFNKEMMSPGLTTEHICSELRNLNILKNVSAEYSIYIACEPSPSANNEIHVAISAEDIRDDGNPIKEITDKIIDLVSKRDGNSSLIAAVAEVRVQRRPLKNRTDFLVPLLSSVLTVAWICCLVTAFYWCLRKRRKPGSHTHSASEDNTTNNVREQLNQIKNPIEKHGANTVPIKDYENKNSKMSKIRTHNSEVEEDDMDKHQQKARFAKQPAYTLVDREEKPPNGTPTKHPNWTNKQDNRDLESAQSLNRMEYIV
UniProt Q92841: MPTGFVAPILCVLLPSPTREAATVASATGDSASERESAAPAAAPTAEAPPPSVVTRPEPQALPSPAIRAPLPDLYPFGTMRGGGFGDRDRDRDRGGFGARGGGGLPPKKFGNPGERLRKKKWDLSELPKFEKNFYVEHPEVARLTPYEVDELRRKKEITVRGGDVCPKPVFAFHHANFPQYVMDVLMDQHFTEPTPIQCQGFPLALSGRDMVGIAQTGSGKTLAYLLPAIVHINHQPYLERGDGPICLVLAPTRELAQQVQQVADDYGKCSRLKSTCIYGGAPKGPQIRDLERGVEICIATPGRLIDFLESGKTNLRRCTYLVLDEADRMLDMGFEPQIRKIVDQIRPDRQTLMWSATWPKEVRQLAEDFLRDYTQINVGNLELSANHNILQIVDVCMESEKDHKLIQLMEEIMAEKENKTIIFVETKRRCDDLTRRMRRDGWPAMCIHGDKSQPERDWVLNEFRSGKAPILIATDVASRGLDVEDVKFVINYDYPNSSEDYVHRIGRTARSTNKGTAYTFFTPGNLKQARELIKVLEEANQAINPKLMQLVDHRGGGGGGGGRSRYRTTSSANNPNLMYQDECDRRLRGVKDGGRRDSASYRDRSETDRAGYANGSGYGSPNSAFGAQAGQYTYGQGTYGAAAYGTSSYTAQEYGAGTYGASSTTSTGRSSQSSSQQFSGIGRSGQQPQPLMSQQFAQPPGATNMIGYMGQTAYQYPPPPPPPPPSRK
UniProt P84022: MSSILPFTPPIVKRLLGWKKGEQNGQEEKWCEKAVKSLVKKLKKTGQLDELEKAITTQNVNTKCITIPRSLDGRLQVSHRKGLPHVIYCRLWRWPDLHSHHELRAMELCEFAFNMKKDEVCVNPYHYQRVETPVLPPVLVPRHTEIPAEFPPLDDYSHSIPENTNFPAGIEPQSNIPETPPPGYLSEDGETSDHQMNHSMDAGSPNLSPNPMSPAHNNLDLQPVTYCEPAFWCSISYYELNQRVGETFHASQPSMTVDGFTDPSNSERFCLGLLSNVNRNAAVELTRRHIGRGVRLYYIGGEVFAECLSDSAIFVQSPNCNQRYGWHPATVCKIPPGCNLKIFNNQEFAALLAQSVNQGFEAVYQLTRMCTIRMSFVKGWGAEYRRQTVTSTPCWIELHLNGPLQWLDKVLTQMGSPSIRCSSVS

What was measured:
[1] = molecular target: HA-tagged Jagged1 (JAG1) intracellular domain (human) (UniProt P78504); experiment: co-IP; IP with anti-HA antibody and Protein A/G agarose from lysates (Pierce IP lysis buffer with protease and phosphatase inhibitors) of stable HA-JICD1-overexpressing A172 and U87MG cells; IgG isotype control; blots for DDX17, SMAD3, pSMAD3 (Ser 213), pSMAD3 (Ser 423/425)
HA-DDX17 = HA-DDX17 (UniProt Q92841); experiment: co-IP; IP with anti-HA antibody (HA-DDX17) from lysates of HEK293T cells co-transfected with HA-DDX17 and FLAG-SMAD3 or FLAG-SMAD3 mutants; 5 uM MG-132 for 12 h before harvest; with or without SB431542; blot with anti-FLAG

Substance	binding [1]	binding (HA-DDX17)
DEAD-box helicase 17 (DDX17), endogenous (from UniProt Q92841 1-729)	binds	
FLAG-SMAD3 with C-tail mutations (SMAD3-CM) (from UniProt P84022)		binds

Results are given in words; binding and its absence hold for the method and conditions named. Binding seen in cells or lysates may run through a third protein. Binding calls can cover weak binding; strength is not graded here.
